Source: PubChem BioAssay AID1508597 (Cure First, 2020)
Purpose: 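Survival screen with siRNA in ovarian cancer cells derived from patients, with or without rucaparib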 (primary screen). System: human ovarian carcinoma lines grown from tumours: OCI-P5x (papillary serous) and OCI-C5x (clear cell). Knock-down reagent: siRNA pool against human genes, 1.25 pmol siRNA per well. Timing: 72 h or 96 h, depending on the cell culture. Conditions: rucaparib 20 µM (about IC30) or vehicle, present until read-out. Rucaparib or vehicle: Rucaparib. Cell line: OCI-P5x (serous). Measured: 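ATP luminescence measured at 72 or 96 h according to the culture, then normalised and expressed as percent viability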. Scale: viability, normalised: higher = more viable cells remaining. Call rule: 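Active when normalised viability falls below 80 percent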. Meaning of the calls: active = viability under 80%; inactive = viability 80% or more.
This is a random part of the about 2,100 reagents, in one setting of the screen. 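Calls flag viability under 80% in either arm, not effects specific to rucaparib; the reference for percent is not stated.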 Not stated in the record: the 100% reference.

For SREBF1 (GeneID 6720), technical replicate 1, what was measured?
viability, normalised (%): 63.6; activity call: active

What did the screen give for SREBF1 (GeneID 6720), technical replicate 2?
viability, normalised (%): 62.5; activity call: active

With SREBF1 (GeneID 6720), technical replicate 3, what does the deposit list?
viability, normalised (%): 46.8; activity call: active

What did the screen give for TSPYL5 (GeneID 85453), technical replicate 1?
viability, normalised (%): 65.6; activity call: active

With TSPYL5 (GeneID 85453), technical replicate 2, how do the results read?
viability, normalised (%): 45.7; activity call: active

How did the screen score TSPYL5 (GeneID 85453), technical replicate 3?
viability, normalised (%): 66.9; activity call: active

Records listed so far whose target name starts with S or s (3):
SREBF1 (GeneID 6720), technical replicate 1 | viability, normalised (%) = 63.6; activity call = active
SREBF1 (GeneID 6720), technical replicate 2 | viability, normalised (%) = 62.5; activity call = active
SREBF1 (GeneID 6720), technical replicate 3 | viability, normalised (%) = 46.8; activity call = active

Additional reagents:
For DDX19B (GeneID 11269), technical replicate 1, what does the deposit list?
viability, normalised (%): 61.3; activity call: active

How did the screen score DDX19B (GeneID 11269), technical replicate 2?
viability, normalised (%): 61.1; activity call: active

For DDX19B (GeneID 11269), technical replicate 3, what was measured?
viability, normalised (%): 57.9; activity call: active

What is on record for PDE7B (GeneID 27115), technical replicate 1?
viability, normalised (%): 62.2; activity call: active

With PDE7B (GeneID 27115), technical replicate 2, what was measured?
viability, normalised (%): 66.8; activity call: active

What is on record for PDE7B (GeneID 27115), technical replicate 3?
viability, normalised (%): 67.3; activity call: active
